According to PubChem BioAssay AID624297 (National Center for Advancing Translational Sciences (NCATS), 2012):
About 6,200 (1.8%) of roughly 340,000 compounds were called active. Inconclusive results, whose numbers are uncertain, are shown with a selection of clear calls. The call rests on the fitted dose curve; in most records, active means well fitted activation curve with a large enough effect; inconclusive means small, poorly fitted or top-dose-only effect; inactive means no such curve, though single readings can be large or run the other way. Potencies beside an inconclusive call are fits to weak or partial responses and may not hold up.

Assay: A quantitative high throughput screen for small molecules that induce DNA re-replication in SW480 colon adenocarcinoma cells. Further: nearly all actives have a fitted effect of over 55% in size. On re-replication activation: % of control where 0% means no effect.
Conditions: Hoechst DNA content imaging, 48 h; re-replication activation: at 46.1 µM (top of the series) unless noted
Method in brief: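 Compounds, transferred as 23 nL by pin tool, were incubated with cells for 48 hr; DNA content per nucleus was then quantified by Hoechst staining and fluorescence plate imaging.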
Potency means the concentration at half of the fitted maximal effect.

| SMILES | Potency | re-replication activation |
| --- | --- | --- |
| COc1cccc(/C=N/NC(=O)c2[nH]nc3c2CCc2ccccc2-3)c1 | inconclusive: 3.26 µM [activator, full curve, poor fit] | – |
| CCOc1ccc2nc(NCCNC(=O)c3cc(OC)c(OC)c(OC)c3)c(C#N)cc2c1 | active: 6.51 µM | – |
| CCN1CCN(C(=O)c2ccc(-c3nc4ccccc4s3)s2)CC1 | inactive | – |
| COC(C/C=C/C(=O)[C@H](C)OCc1ccccc1)OC | inconclusive: 6.51 µM [activator, single point] | – |
| CC1CC(C)CN(c2oc(-c3ccco3)nc2C#N)C1 (stereo not given) | inactive | – |
| COc1cccc(-c2ccc(NC(=O)C3CCCN(CCCn4nc(C)cc4C)C3)cc2)c1 (stereo not given) | active: 20.6 µM | – |
| CCOC(=O)C1CCN(S(=O)(=O)c2ccc(OC)c(Cl)c2)CC1 | inconclusive: 6.51 µM [activator, partial curve, poor fit] | – |
| CCOC(=O)c1ccc(Oc2nc(N(C)C)nc(N(C)C)n2)cc1 | – | inactive: 0.144% [at 9.22 µM] |
| COc1cccc(NC(=O)CNC(=O)c2ccc(OC)c(OC)c2)c1 | inactive | – |
| CCCn1c(=O)[nH]c(=O)c2c1nc(-c1cc([N+](=O)[O-])ccc1Cl)n2CCOC | inactive | – |
| COc1cc(C(=O)NCCC(=O)NC2CCC(C)CC2)cc(OC)c1OC (stereo not given) | inconclusive: 18.4 µM [activator, single point] | – |
| O=C(CS(=O)CC(=O)Nc1cccnc1)Nc1ccc(F)cc1 (stereo not given) | inactive | – |
| Cc1c(C(=O)OC/C(O)=C(\C#N)c2nc3ccccc3[nH]2)oc2ccccc12 | inconclusive: 20.6 µM [activator, single point] | – |
| CN(C(=O)CSc1ncnc2sccc12)C1CCS(=O)(=O)C1 (stereo not given) | inconclusive: 11.6 µM [activator, single point] | – |
| CCCCNC(=NCc1cccc(C(F)(F)F)c1)Nc1ccccc1 | inconclusive: 29.1 µM [activator, single point] | – |
| O=C1CC(NS(=O)(=O)c2ccc([N+](=O)[O-])cc2)CN1c1ccc2c(c1)OCCO2 (stereo not given) | inconclusive: 1.84 µM [activator, single point] | – |
| Cc1cccc(CN2CCSCC2)c1 | inconclusive: 20.6 µM [activator, partial curve, poor fit] | – |
| COc1ccc(OC)c(C(C)NS(=O)(=O)c2cccs2)c1 (stereo not given) | inconclusive: 29.1 µM [activator, single point] | – |
| CC12CN(C(=O)c3ccccc3Br)CC(C)(CN(C(=O)c3ccccc3Br)C1)C2=O | inconclusive: 20.6 µM [activator, partial curve, poor fit] | – |
| O=C(N/N=C/c1ccncc1)c1cc2c(ccc3ccccc32)o1 | inactive | – |
| Cc1ccc(S(=O)(=O)/C(=C/Cl)NC(=O)c2ccccc2)cc1 | active: 13 µM | – |
| CN(CC(=O)Nc1ccc(F)c(F)c1F)C(=O)c1ccc(-n2cncn2)cc1 | inactive | – |
| CC(C)OC(=O)Nc1ccc2c(c1)N(C(=O)CCN(C)C)c1ccccc1CC2 | inconclusive: 11.6 µM [activator, single point] | – |

| SMILES | Potency | re-replication activation |
| --- | --- | --- |
| CC1(C)Cc2nc3oc4c(=S)nc[nH]c4c3cc2CO1 | inconclusive: 32.6 µM [activator, partial curve, poor fit] | – |
| O=C(CCCN1C(=O)NC2(CCCC2)C1=O)Nc1ccc(Cl)c(S(=O)(=O)N2CCOCC2)c1 | inconclusive: 0.82 µM [activator, full curve, poor fit] | – |
| CC(=O)Oc1cc2oc(=O)c3c(c2cc1Cl)CCC3 | inconclusive: 29.1 µM [activator, single point] | – |
| C/C(CC(=O)Nc1ccc(Cl)cc1C(F)(F)F)=N\NC(N)=S | inconclusive: 2.91 µM [activator, partial curve, poor fit] | – |
| COc1ccc(C(=O)COC(=O)C2COc3ccccc3O2)cc1F (stereo not given) | inactive | – |
| CCO[C@@H]1OC(C(=O)N2CCOCC2)=C[C@H](c2ccc(Br)cc2)[C@H]1CCCO | inconclusive: 29.1 µM [activator, partial curve, poor fit] | – |
| CC(=O)NC1=C(N(C)C2CCS(=O)(=O)C2)C(=O)c2ccccc2C1=O (stereo not given) | inconclusive: 23.1 µM [activator, single point] | – |
| CCc1c(C)nc2ccc(Br)cc2c1SCCC#N | inactive | – |
| COc1ccc(C(=O)NC(=S)N2CCN(c3ccccc3O)CC2)cc1 | inactive | – |
| COc1ccc(NC(=O)c2cccc(NC(=O)C(C)C)c2)c([N+](=O)[O-])c1 | inactive | – |
| Cc1ccc(SCC(=O)NC(C)c2ccccc2)cc1 (stereo not given) | inconclusive: 29.1 µM [activator, single point] | – |
| Cc1ccc2c(c1)c1c3n2CCN(C(=O)CN2CCN(C)CC2)C3CCC1 (stereo not given) | inconclusive: 29.1 µM [activator, single point] | – |
| Cc1ccc(C)c(OCc2cc(C(=O)N(C)Cc3nccn3C)no2)c1 | inactive | – |
| CCCN(CCC)CC(O)Cn1cc(/C=C/C(=O)c2ccccc2)c2ccccc21 (stereo not given) | inconclusive: 5.8 µM [activator, full curve, poor fit] | – |
| O=S(=O)(c1ccc(Br)c2nsnc12)N1CCOCC1 | inconclusive: 29.1 µM [activator, single point] | – |
| Cc1ccc(CNC(=O)COC(=O)c2ccc(Br)cc2)cc1 | inactive | – |
| O=C(CCn1cnc(-c2ccccc2)c1-c1ccccc1)N/N=C/c1ccc(O)cc1 | inconclusive: 29.1 µM [activator, single point] | – |
| CCOc1ccccc1NC(=O)Cn1c(=O)n(-c2ccc(OC)cc2OC)c(=O)c2c(C)c(C(=O)N(CC)CC)sc21 | inconclusive: 5.8 µM [activator, partial curve, poor fit] | – |
| C=C1CCN([C@@H](CC(C)C)C(=O)N2CCCC2)S(=O)(=O)c2ccccc21 | inactive | – |
| O=C(Cc1ccccc1)N/N=C/c1ccc2cccc(O)c2n1 | inconclusive: 5.17 µM [activator, single point] | – |
| O=C(O)c1cc(N/N=C/c2ccc(N3CCOCC3)cc2)ccc1Cl | inconclusive: 0.0651 µM [activator, full curve, poor fit] | – |
| CC(C)(C)c1ccc(OCCCC(=O)Nc2ccc(S(N)(=O)=O)cc2)cc1 | inconclusive: 25.9 µM [activator, single point] | – |

Record cards, as listed above. Order of values: Potency	re-replication activation
`CC(C)(C)c1ccc(OCCCC(=O)Nc2ccc(S(N)(=O)=O)cc2)cc1` is entered as inconclusive: 25.9 µM [activator, single point]	–
`CC(C)OC(=O)Nc1ccc2c(c1)N(C(=O)CCN(C)C)c1ccccc1CC2` is entered as inconclusive: 11.6 µM [activator, single point]	–
`Cc1cccc(CN2CCSCC2)c1` is entered as inconclusive: 20.6 µM [activator, partial curve, poor fit]	–
